Assay in all cases: two-hybrid; receptors fused to the GAL4 DNA-binding domain (baits), PP2Cs fused to the GAL4 activation domain (preys); growth on media lacking histidine and adenine, supplemented or not with 50 uM ABA; dilutions 10^-1, 10^-2, 10^-3 of saturated cultures spotted
The target of experiment [1] is Sl12g055990 tomato PYR/PYL/RCAR ABA receptor, GAL4 DNA-binding domain fusion (tomato (Solanum lycopersicum)).
Experiment [2] has as its target Sl03g007310 tomato PYR/PYL/RCAR ABA receptor, GAL4 DNA-binding domain fusion (tomato (Solanum lycopersicum)).
Experiment [3] has as its target Sl03g095780 tomato PYR/PYL/RCAR ABA receptor, GAL4 DNA-binding domain fusion (tomato (Solanum lycopersicum)).
Experiment [4] concerns the target Sl06g050500 tomato PYR/PYL/RCAR ABA receptor, GAL4 DNA-binding domain fusion (tomato (Solanum lycopersicum)).
For experiment [5], the target named is Sl06g061180 tomato PYR/PYL/RCAR ABA receptor, GAL4 DNA-binding domain fusion (tomato (Solanum lycopersicum)).
The target in experiment [6] is Sl08g076960 tomato PYR/PYL/RCAR ABA receptor, GAL4 DNA-binding domain fusion (tomato (Solanum lycopersicum)).
Experiment [7] deals with Sl09g015380 tomato PYR/PYL/RCAR ABA receptor, GAL4 DNA-binding domain fusion (tomato (Solanum lycopersicum)).

Amino acid sequences for entries named in this document (tags omitted).
UniProt O04719: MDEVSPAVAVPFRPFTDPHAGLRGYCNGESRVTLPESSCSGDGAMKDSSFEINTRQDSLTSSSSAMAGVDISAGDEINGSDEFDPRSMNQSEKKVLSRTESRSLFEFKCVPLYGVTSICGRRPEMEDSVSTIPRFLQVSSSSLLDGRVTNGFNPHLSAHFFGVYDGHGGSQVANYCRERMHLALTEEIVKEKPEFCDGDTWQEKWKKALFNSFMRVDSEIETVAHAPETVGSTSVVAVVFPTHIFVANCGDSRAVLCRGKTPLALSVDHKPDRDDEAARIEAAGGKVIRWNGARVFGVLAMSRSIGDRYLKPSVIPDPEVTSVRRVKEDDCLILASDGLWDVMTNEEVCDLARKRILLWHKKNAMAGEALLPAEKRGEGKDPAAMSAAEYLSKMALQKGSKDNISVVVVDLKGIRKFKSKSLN

Results are given in words; binding and its absence hold for the method and conditions named. For some of these results: Binding calls can cover weak binding; strength is not graded here. Tags and fused reporters may be left off the sequences shown.

Regarding “Arabidopsis clade A PP2C ABI2, GAL4 activation domain fusion (from UniProt O04719 1-423) (enzyme)”, in experiment [1], the binding entry is reported as “binds”.

B1: Arabidopsis clade A PP2C HAB2, GAL4 activation domain fusion (enzyme, UniProt Q9LNP9 1-511)
chain: MEEISPAVALTLGLANTMCDSGISSTFDISELENVTDAADMLCNQKRQRYSNGVVDCIMGSVSEEKTLSEVRSLSSDFSVTVQESEEDEPLVSDATIISEGLIVVDARSEISLPDTVETDNGRVLATAIILNETTIEQVPTAEVLIASLNHDVNMEVATSEVVIRLPEENPNVARGSRSVYELECIPLWGTISICGGRSEMEDAVRALPHFLKIPIKMLMGDHEGMSPSLPYLTSHFFGVYDGHGGAQVADYCHDRIHSALAEEIERIKEELCRRNTGEGRQVQWEKVFVDCYLKVDDEVKGKINRPVVGSSDRMVLEAVSPETVGSTAVVALVCSSHIIVSNCGDSRAVLLRGKDSMPLSVDHKPDREDEYARIEKAGGKVIQWQGARVSGVLAMSRSIGDQYLEPFVIPDPEVTFMPRAREDECLILASDGLWDVMSNQEACDFARRRILAWHKKNGALPLAERGVGEDQACQAAAEYLSKLAIQMGSKDNISIIVIDLKAQRKFKTRS
Turning to B1, the binding entry in experiment [2] and in experiment [1] was “binds” throughout.

B2: Arabidopsis PP2C AHG1, GAL4 activation domain fusion (enzyme, UniProt Q9FLI3 1-416)
chain: MTEIYRTISTGRGDDVSPTKCRERRRRRIEMRRQAAVFGEPSSSRNRDRTDMEVYSSFDVPLRKQARRSEIGGLPADIGGFLAPPAASSCQKSEAPVWKGEETEDEPLYGIVSVMGRSRKMEDSVTVKPNLCKPEVNRQRPVHFFAVYDGHGGSQVSTLCSTTMHTFVKEELEQNLEEEEEGSENDVVERKWRGVMKRSFKRMDEMATSTCVCGTSVPLCNCDPREAAISGSTAVTAVLTHDHIIVANTGDSRAVLCRNGMAIPLSNDHKPDRPDERARIEAAGGRVLVVDGARVEGILATSRAIGDRYLKPMVAWEPEVTFMRRESGDECLVLASDGLWDVLSSQLACDIARFCLREETPSSLDLNRMAQEDDNDGEQNPSRSVLAATLLTRLALGRQSSDNISVVVIDLKNSSQ
With B2, the binding result in experiment [2], in experiment [3], in experiment [4], in experiment [5], in experiment [1] and in experiment [6] was “no binding” in each case. The binding entry in experiment [7] is listed as “no binding”.

The values above are taken from article PMC4112642, “Tomato PYR/PYL/RCAR abscisic acid receptors show high expression in root, differential sensitivity to the abscisic acid agonist quinabactin, and the capability to enhance plant drought resistance” (Journal of Experimental Botany, 2014).
